Values from PubChem BioAssay AID652243 (Drosophila RNAi Screening Center, 2013).
In all, the deposit lists about 24,000 reagents; below is an unselected part of those with a known target gene and a result. Over the whole deposit, 246 (1%) got an active call. 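Plates not normalised; calls are printed but the firefly/Renilla ratio behind them is not deposited; fold cut for lowering reported inconsistently.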 The raw values are shown without normalisation. No sequences are given here. The record does not give: the amount of reagent.

- Assay: 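Fly regulators of androgen-dependent reporter output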 (primary screen)
- Cells: Drosophila S2R+ cells
- Reagent: long dsRNA against Drosophila genes
- Duration: 72 h (48 h, then 24 h hormone)
- Conditions: synthetic androgen R1881 at 10 nM for 24 h
- Measurement: 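Firefly light from an androgen-responsive reporter and Renilla control light per well, raw and unnormalised, for each of two replicates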
- Scale: firefly reporter light: higher = more light from androgen-responsive reporter; Renilla control light: higher = more constitutive control signal (cell number, transfection)
- Call rule: 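Across duplicate plates, a knock-down whose log firefly/Renilla ratio shifted a set fold down or up from the GFP/LacZ control mean was a hit; the downward cut appears as both 1.5 and 3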
- Calls: active = hit: reporter lowered or raised; inactive = no hit

target gene | DRSC id | firefly reporter light, replicate 1 | firefly reporter light, replicate 2 | Renilla control light, replicate 1 | Renilla control light, replicate 2 | call
CG31528 (GeneID 318785) | DRSC12003 | 1.70e5 | 1.51e5 | 5.19e5 | 5.86e5 | inactive
mRpL27 (GeneID 318825) | DRSC22568 | 6.49e5 | 6.43e5 | 1.26e6 | 1.15e6 | inactive
ana3 (GeneID 36341) | DRSC06289 | 2.29e5 | 1.64e5 | 1.18e6 | 8.78e5 | inactive
ana3 (GeneID 36341) | DRSC28049 | 4.22e5 | 3.95e5 | 1.30e6 | 1.42e6 | inactive
Tim17a2 (GeneID 40632) | DRSC12252 | 61890 | 99889 | 1.98e6 | 1.79e6 | inactive
Tim17a2 (GeneID 40632) | DRSC23837 | 2.86e5 | 1.99e5 | 6.56e5 | 4.82e5 | inactive
Ku80 (GeneID 34930) | DRSC02699 | 1.21e5 | 1.49e5 | 1.37e6 | 1.27e6 | inactive
Ku80 (GeneID 34930) | DRSC26861 | 4.29e5 | 3.54e5 | 6.75e5 | 5.90e5 | inactive
pnut (GeneID 35801) | DRSC07666 | 1.20e6 | 6.40e5 | 1.65e6 | 1.32e6 | inactive
pnut (GeneID 35801) | DRSC23971 | 4.15e5 | 4.53e5 | 5.89e5 | 5.49e5 | inactive
CG41518 (retired record) (GeneID 5740709) | DRSC38578 | 1.03e6 | 8.81e5 | 6.88e5 | 5.16e5 | inactive
CG8586 (GeneID 35854) | DRSC07218 | 7.91e5 | 7.75e5 | 1.13e6 | 1.46e6 | inactive
CG34436 (GeneID 5740743) | DRSC15164 | 1.92e5 | 2.17e5 | 1.51e6 | 2.74e6 | inactive
CG13373 (GeneID 30988) | DRSC27059 | 3.48e5 | 2.64e5 | 6.55e5 | 4.75e5 | inactive
Gr98a (GeneID 43305) | DRSC14719 | 4.85e5 | 5.20e5 | 2.10e6 | 3.50e6 | inactive
fend (GeneID 31843) | DRSC17601 | 1.06e6 | 8.40e5 | 6.73e5 | 5.66e5 | inactive
fend (GeneID 31843) | DRSC17867 | 3.57e5 | 4.00e5 | 3.21e6 | 3.02e6 | inactive
dlg1 (GeneID 32083) | DRSC18896 | 1.27e6 | 5.11e5 | 1.88e6 | 5.62e5 | inactive
dlg1 (GeneID 32083) | DRSC19767 | 1.57e5 | 1.52e5 | 3.19e6 | 3.02e6 | active
dlg1 (GeneID 32083) | DRSC20324 | 74464 | 94104 | 7.16e5 | 6.79e5 | inactive
dlg1 (GeneID 32083) | DRSC29546 | 4.85e5 | 4.51e5 | 8.17e5 | 8.17e5 | inactive
dlg1 (GeneID 32083) | DRSC36997 | – | – | – | – | inactive
CG13884 (GeneID 38064) | DRSC08354 | 49116 | 40525 | 8.03e5 | 5.77e5 | inactive
Kaz1-ORFB (GeneID 3772691) | DRSC08669 | 95003 | 2.02e5 | 9.07e5 | 1.04e6 | inactive
betaNACtes2 (GeneID 32386) | DRSC19792 | 4.74e5 | 3.40e5 | 2.96e6 | 3.57e6 | inactive
CG6465 (GeneID 41274) | DRSC16046 | 61308 | 72931 | 4.78e5 | 5.42e5 | inactive
CG6465 (GeneID 41274) | DRSC25671 | 1.56e6 | 1.16e6 | 1.06e6 | 1.07e6 | inactive
CG2871 (GeneID 31411) | DRSC18230 | 4.83e5 | 5.27e5 | 2.38e6 | 2.84e6 | inactive
CG2871 (GeneID 31411) | DRSC21719 | 5.13e5 | 5.58e5 | 2.83e6 | 3.40e6 | inactive
lncRNA:CR33938 (GeneID 3772088) | DRSC37840 | 7.86e5 | 8.59e5 | 2.46e6 | 1.48e6 | inactive
lncRNA:CR33938 (GeneID 3772088) | DRSC39117 | 7.45e5 | 6.41e5 | 1.71e6 | 1.72e6 | inactive
CG13428 (GeneID 37317) | DRSC06390 | 1.25e5 | 1.21e5 | 2.21e6 | 1.68e6 | inactive
CG31955 (GeneID 319045) | DRSC00285 | 91377 | 1.01e5 | 9.49e5 | 7.61e5 | inactive

5 neighbouring reagents from above, quoted:
target gene | DRSC id | firefly reporter light, replicate 1 | firefly reporter light, replicate 2 | Renilla control light, replicate 1 | Renilla control light, replicate 2 | call
CG8586 (GeneID 35854) | DRSC07218 | 7.91e5 | 7.75e5 | 1.13e6 | 1.46e6 | inactive
CG34436 (GeneID 5740743) | DRSC15164 | 1.92e5 | 2.17e5 | 1.51e6 | 2.74e6 | inactive
CG13373 (GeneID 30988) | DRSC27059 | 3.48e5 | 2.64e5 | 6.55e5 | 4.75e5 | inactive
Gr98a (GeneID 43305) | DRSC14719 | 4.85e5 | 5.20e5 | 2.10e6 | 3.50e6 | inactive
fend (GeneID 31843) | DRSC17601 | 1.06e6 | 8.40e5 | 6.73e5 | 5.66e5 | inactive

More results follow:
target gene | DRSC id | firefly reporter light, replicate 1 | firefly reporter light, replicate 2 | Renilla control light, replicate 1 | Renilla control light, replicate 2 | call
CG12994 (GeneID 50350) | DRSC19514 | 4.70e5 | 4.61e5 | 2.98e6 | 2.85e6 | inactive
CG14989 (GeneID 38485) | DRSC08448 | 9.93e5 | 4.89e5 | 1.47e6 | 1.35e6 | inactive
CG14989 (GeneID 38485) | DRSC25585 | 5.26e5 | 6.35e5 | 7.96e5 | 6.71e5 | inactive
CG32206 (GeneID 40105) | DRSC10094 | 2.87e5 | 1.95e5 | 2.75e6 | 2.29e6 | inactive
CG32206 (GeneID 40105) | DRSC10095 | 1.99e5 | 1.38e5 | 2.20e6 | 1.63e6 | inactive
CG32206 (GeneID 40105) | DRSC10096 | 2.97e5 | 2.71e5 | 1.60e6 | 2.20e6 | inactive
CG32206 (GeneID 40105) | DRSC11080 | 2.28e5 | 2.49e5 | 2.46e6 | 2.36e6 | inactive
CG33658 (GeneID 3772524) | DRSC37833 | 1.65e6 | 1.20e6 | 3.12e6 | 2.77e6 | inactive
CG3792 (GeneID 33717) | DRSC02725 | 2.02e5 | 2.23e5 | 1.98e6 | 1.39e6 | inactive
CG34008 (GeneID 3885577) | DRSC37919 | 8.39e5 | 7.60e5 | 1.34e6 | 1.66e6 | inactive
Tsen54 (GeneID 39397) | DRSC10527 | 96185 | 1.27e5 | 1.31e6 | 1.11e6 | inactive
Tsen54 (GeneID 39397) | DRSC27583 | 4.66e5 | 3.38e5 | 7.54e5 | 6.31e5 | inactive
Prp39 (GeneID 43399) | DRSC15133 | 21966 | 23352 | 4.66e5 | 3.47e5 | active
Prp39 (GeneID 43399) | DRSC25186 | 1.44e6 | 1.59e6 | 9.03e5 | 1.07e6 | inactive
CG30187 (GeneID 246509) | DRSC22461 | 3.78e5 | 6.87e5 | 4.74e5 | 7.61e5 | inactive
nxf2 (GeneID 39843) | DRSC10403 | 18003 | 23177 | 2.59e5 | 2.40e5 | inactive
nxf2 (GeneID 39843) | DRSC26721 | 2.76e5 | 2.33e5 | 6.95e5 | 7.04e5 | inactive
Psf3 (GeneID 31967) | DRSC18216 | 4.54e5 | 5.77e5 | 3.37e6 | 4.25e6 | inactive
Psf3 (GeneID 31967) | DRSC21487 | 9.77e5 | 7.57e5 | 3.25e6 | 2.21e6 | inactive
Semp1 (GeneID 34914) | DRSC01874 | 1.57e5 | 1.76e5 | 2.09e6 | 2.36e6 | inactive
CG15870 (GeneID 36446) | DRSC06588 | 3.42e5 | 1.62e5 | 1.67e6 | 1.67e6 | inactive
CG15870 (GeneID 36446) | DRSC26344 | 2.25e5 | 2.79e5 | 7.42e5 | 8.21e5 | inactive
mRpL39 (GeneID 39627) | DRSC10255 | 1.92e5 | 1.87e5 | 1.68e6 | 1.44e6 | inactive
Theg (GeneID 42585) | DRSC16023 | 36160 | 41929 | 4.87e5 | 4.96e5 | inactive
kis (GeneID 33185) | DRSC00521 | 60390 | 42339 | 3.17e5 | 3.78e5 | inactive
kis (GeneID 33185) | DRSC00625 | 65041 | 77508 | 5.23e5 | 8.62e5 | inactive
kis (GeneID 33185) | DRSC00823 | 7.70e5 | 7.60e5 | 3.97e6 | 2.12e6 | inactive
kis (GeneID 33185) | DRSC39149 | 6.72e5 | 5.30e5 | 1.72e6 | 1.73e6 | inactive
